Values of other authors as cited in paper PMC12024457 (Antioxidants, 2025).

Conditions: water, room temperature, neutral pH; cited from earlier work

Compound: COc1cc(/C=C/C(=O)CC(=O)/C=C/c2ccc(O)c(OC)c2)ccc1O [Curcumin]
- Solubility (μM): Insoluble [31]
